# According to PubChem BioAssay AID588590 (National Center for Advancing Translational Sciences (NCATS), 2011):
# Amino acid sequences for entries named in this document (tags omitted). A change or cut given only in a name is not applied to a line headed by its entry.
# UniProt Q9UNA4: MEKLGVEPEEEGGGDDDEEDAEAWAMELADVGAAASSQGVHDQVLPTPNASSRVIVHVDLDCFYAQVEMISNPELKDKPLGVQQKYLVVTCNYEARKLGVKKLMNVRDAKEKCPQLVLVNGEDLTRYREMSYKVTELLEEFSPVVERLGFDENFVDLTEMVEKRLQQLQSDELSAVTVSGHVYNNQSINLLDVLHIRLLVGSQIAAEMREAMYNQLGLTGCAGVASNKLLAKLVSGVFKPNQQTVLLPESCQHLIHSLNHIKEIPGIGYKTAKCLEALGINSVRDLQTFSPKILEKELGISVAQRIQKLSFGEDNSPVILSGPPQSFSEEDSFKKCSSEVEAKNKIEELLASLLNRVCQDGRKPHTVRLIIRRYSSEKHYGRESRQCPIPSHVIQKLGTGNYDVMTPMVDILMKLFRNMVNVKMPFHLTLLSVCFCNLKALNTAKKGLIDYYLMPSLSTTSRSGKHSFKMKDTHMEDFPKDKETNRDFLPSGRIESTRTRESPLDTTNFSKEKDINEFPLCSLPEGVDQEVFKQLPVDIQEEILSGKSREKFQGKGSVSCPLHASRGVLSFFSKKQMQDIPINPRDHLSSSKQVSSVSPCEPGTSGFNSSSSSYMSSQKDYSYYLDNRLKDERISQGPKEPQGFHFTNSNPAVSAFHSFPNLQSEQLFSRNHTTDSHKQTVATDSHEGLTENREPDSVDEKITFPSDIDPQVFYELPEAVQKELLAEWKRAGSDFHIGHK
# About 4,000 (1%) of roughly 390,000 compounds were called active. This list was built around the results that the source calls inconclusive (neither active nor inactive); the mix of calls is not that of the screen. The call rests on the fitted dose curve; in most records, active means well fitted inhibition curve with a large enough effect; inconclusive means small, poorly fitted or top-dose-only effect, or another doubt; inactive means no such curve, though single readings can be large or run the other way. Where the call is inconclusive, the potency comes from a doubtful curve fit.
# Target: DNA polymerase iota (Homo sapiens) (UniProt Q9UNA4)
# Assay: qHTS for Inhibitors of Polymerase Iota
# Settings: Pol iota fluorescent replication assay, 10 min; series mostly up to 115 µM
# Outline: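 Fluorescent replication assay read twice, at 0 min and 10 min after adding 50 nM (final) substrate. Enzyme (10 nM) and compounds were first incubated 15 min at room temperature; enzyme-free buffer wells were negative controls.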
# Potency means the concentration at half of the fitted maximal effect.
row,SMILES,Potency
1,N#CC1=C(N)C(C#N)(C#N)[C@H](c2c(F)cccc2F)[C@H]2CC3(CC=C12)OCCO3,"inconclusive: 22.4 µM [inhibitor, full curve, poor fit]"
2,O=C1c2cccc3c(O)ccc(c23)C(=O)N1c1ccc(Cl)cc1,"inconclusive: 14.1 µM [inhibitor, partial curve, poor fit]"
3,Cc1ccnc(NS(=O)(=O)c2ccc(NC(=O)Cc3cccs3)cc2)n1,active: 14.1 µM
4,Cc1cc(C)c2oc(C(=O)Nc3ccc(S(=O)(=O)Nc4ncccn4)cc3)cc(=O)c2c1,inactive
5,COc1ccc(CNC(=O)CN2C(=O)COc3ccc(S(=O)(=O)N4CCCCC4)cc32)cc1,"inconclusive: 89.1 µM [inhibitor, partial curve, poor fit]"
6,O=C(NC(Cc1ccccc1)C(=O)O)/C(=C\c1ccco1)NC(=O)c1ccco1 (stereo not given),inactive
7,COC(=O)C1=C(N)Oc2cc(C)n(C)c(=O)c2C1c1ccc(Cl)c(Cl)c1 (stereo not given),"inconclusive: 50.1 µM [inhibitor, partial curve, poor fit]"
8,O=C(NCc1cccnc1)/C(=C/c1ccc(-c2ccc(Cl)cc2)o1)S(=O)(=O)c1ccccc1,"inconclusive: 22.4 µM [inhibitor, partial curve]"
9,CC(OC(=O)CSc1ccc([N+](=O)[O-])cc1)C(=O)NCc1ccccc1 (stereo not given),"inconclusive: 25.1 µM [inhibitor, single point]"
10,O=C(O)c1nc(NCc2ccccc2)ncc1Cl,inactive
11,CCc1nnc(SCc2cccc(Cl)c2)c2cc3sccc3n12,inactive
12,Cc1cc(C)c(S(=O)(=O)NCCn2c(C)cc3ccccc32)c(C)c1,"inconclusive: 22.4 µM [inhibitor, single point]"
13,CC1(C)Cc2c(sc3nc(SCC(=O)NCc4ccco4)n(-c4ccccc4)c(=O)c23)CS1,"inconclusive: 28.2 µM [inhibitor, single point]"
14,COc1ccc(NC(=O)Cn2c(=O)n(CCCCCC(=O)NCc3ccc4c(c3)OCO4)c(=O)c3sccc32)cc1Cl,inactive
15,O=C(Cn1cc(SCc2ccc(F)cc2)c2ccccc21)N1CCCCC1,inactive
16,O=C(NCCc1ccccc1)c1ccc(-c2ccccc2C(F)(F)F)o1,"inconclusive: 25.1 µM [inhibitor, full curve, poor fit]"
17,CCOc1ccc(CNC(=O)CCCn2c(=O)c3cccn3c3ccccc32)cc1,inactive
18,CC(=O)c1ccc(S(=O)(=O)Oc2ccc(C(=O)O)cc2Cl)cc1,"inconclusive: 20 µM [inhibitor, single point]"
19,O=C(CO/N=C/c1ccccc1O)NNC(=O)c1ccccc1Cl,"inconclusive: 8.91 µM [inhibitor, full curve, poor fit]"
20,COc1ccc(S(=O)(=O)N2CCOCC2)cc1NC(=O)COc1ccccc1,"inconclusive: 39.8 µM [inhibitor, single point]"
21,O=C1c2cccc3c([N+](=O)[O-])ccc(c23)C(=O)N1O,inactive
22,COc1ccc(F)c(C2C(C#N)=C(N)Oc3n[nH]c(C(C)(C)C)c32)c1 (stereo not given),"inconclusive: 39.8 µM [inhibitor, single point]"

row,SMILES,Potency
1,Nc1ccc2c(c1)C/C(=C/c1ccco1)C2=O,"inconclusive: 20 µM [inhibitor, full curve, poor fit]"
2,COc1ccc(NC(=O)COc2ccc(C)c(C)c2)cc1S(=O)(=O)N1CCCCC1,"inconclusive: 79.4 µM [inhibitor, single point]"
3,O=C(c1ccc(Cl)cc1[N+](=O)[O-])N1CCc2ccccc2C1,"inconclusive: 79.4 µM [inhibitor, partial curve, poor fit]"
4,CC(C)(O)c1ccc2c(c1)CCC1C(C)(C(=O)O)CCCC21C (stereo not given),"inconclusive: 28.2 µM [inhibitor, single point]"
5,COc1ccc(CCC(C)N2CCC(Oc3ccc(C(=O)N4CCCC4)cc3)CC2)cc1 (stereo not given),active: 89.1 µM
6,Cn1sc(=O)c2cc(S(=O)(=O)NC3CC3)ccc21,"inconclusive: 17.8 µM [inhibitor, partial curve]"
7,O=C(CN1C(=O)COc2ccccc21)c1ccc(Cl)cc1,inactive
8,COc1ccc(-c2nc3ccncc3[nH]2)cc1OC,"inconclusive: 0.631 µM [inhibitor, full curve, poor fit]"
9,CCOC(=O)c1c(NC(C)=O)sc2c1CCCNC2=O,"inconclusive: 39.8 µM [inhibitor, single point]"
10,CCCCNc1ncnc2[nH]ncc12,inactive
11,O=C(O)c1cc(C(=O)O)cc(-c2ccc(/C=c3/sc4nc5ccccc5n4c3=O)o2)c1,active: 10 µM
12,Cc1ccc(C(=O)Cn2c(NCCO)nc3ccccc32)cc1,"inconclusive: 89.1 µM [inhibitor, partial curve, poor fit]"
13,CCOc1ccc(Nc2cc(=O)oc3ccccc23)cc1,"inconclusive: 100 µM [inhibitor, partial curve, poor fit]"
14,Nc1nc(-c2ccccc2)c(N=Nc2ccc(Cl)cc2)s1,"inconclusive: 89.1 µM [inhibitor, single point]"
15,CC1CCN(S(=O)(=O)c2cc(C(=O)N3CCN(c4cccc(Cl)c4)CC3)n(C)c2)CC1,inactive
16,COc1ccc(S(=O)(=O)N2CCN(CC(=O)c3ccc(O)c(O)c3)CC2)cc1,"inconclusive: 50.1 µM [inhibitor, partial curve, poor fit]"
17,C[n+]1c(/C=C/c2ccnc3ccccc23)cc(/C=C/c2ccnc3ccccc23)c2ccccc21,"inconclusive: 11.2 µM [inhibitor, partial curve, poor fit]"
18,O=S(=O)(c1cccs1)N1CCc2ccccc21,"inconclusive: 3.55 µM [inhibitor, partial curve, poor fit]"
19,COc1ccc(C(=O)N2CCC(C(=O)Nc3ccc(C)cc3)CC2)cc1,"inconclusive: 79.4 µM [inhibitor, single point]"
20,C=CCC(C(=O)OC)(C(=O)OC)c1ccccc1[N+](=O)[O-],inactive
21,COc1cccc2cc(C(=O)CS(=O)(=O)c3ccc(C)cc3)c(=O)oc12,"inconclusive: 10 µM [inhibitor, full curve, poor fit]"
22,CCOC(=O)CC(NC(=O)c1cccc2c1C(=O)N(Cc1cccnc1)C2)c1ccc(OC(C)C)cc1 (stereo not given),"inconclusive: 89.1 µM [inhibitor, single point]"

# Quoted at random: 3 compounds from above.
row,SMILES,Potency
15,CC1CCN(S(=O)(=O)c2cc(C(=O)N3CCN(c4cccc(Cl)c4)CC3)n(C)c2)CC1,inactive
6,Cn1sc(=O)c2cc(S(=O)(=O)NC3CC3)ccc21,"inconclusive: 17.8 µM [inhibitor, partial curve]"
18,O=S(=O)(c1cccs1)N1CCc2ccccc21,"inconclusive: 3.55 µM [inhibitor, partial curve, poor fit]"

# (next part)

row,SMILES,Potency
1,COc1cccc(/C=C2\C(=O)C(=O)c3ccccc32)c1,"inconclusive: 3.16 µM [inhibitor, full curve, poor fit]"
2,CN(c1nnc(NC(=O)Nc2ccccc2C(F)(F)F)s1)C1CCCCC1,inactive
3,CN1C(=O)/C(=N\OC(=O)c2cccc3ccccc23)c2ccccc21,active: 31.6 µM
4,Cc1cccc(/C=N/NC(=O)c2cccc(NC(=O)c3ccccc3)c2)n1,"inconclusive: 35.5 µM [inhibitor, partial curve, poor fit]"
5,Clc1ccc(-c2nnc(SCc3nc4ccccc4s3)o2)cc1,"inconclusive: 39.8 µM [inhibitor, single point]"
6,COc1ccc(C=C2SC(=S)NC2=O)cc1,inactive
7,O=C(O)c1ccc2c(c1)C(=O)N(c1ccc(/C=C/C(=O)c3ccccc3)cc1)C2=O,"inconclusive: 15.8 µM [inhibitor, partial curve, poor fit]"
8,CCCCCCn1c(=O)c(Cc2ccccc2)c(O)c2ccccc21,"inconclusive: 89.1 µM [inhibitor, single point]"
9,COc1ccc(S(=O)(=O)c2c(C(=O)c3ccc(C)c(C)c3)cnc3ccc(C)cc23)cc1,"inconclusive: 89.1 µM [inhibitor, single point]"
10,CCc1ccc(NC(=O)CSc2nnc(Cn3c(=O)sc4ccccc43)n2C)cc1,"inconclusive: 70.8 µM [inhibitor, partial curve]"
11,O=C1Nc2ccc(S(=O)(=O)NCc3ccco3)c3cccc1c23,active: 39.8 µM
12,COc1ccccc1N1CCN(C(=O)CCC(=O)N2CCN(c3ccccc3OC)CC2)CC1,"inconclusive: 50.1 µM [inhibitor, single point]"
13,CCOc1ccc(/C=C2/SC(=S)N(n3c(C)ccc3C)C2=O)cc1,"inconclusive: 25.1 µM [inhibitor, single point]"
14,N#CC1=C(N)C(C#N)(C#N)C(c2cccnc2)C2CN(C(=O)OCc3ccccc3)CC=C12 (stereo not given),"inconclusive: 11.2 µM [inhibitor, partial curve, poor fit]"
15,CCOC(=O)c1c(-c2ccccc2)oc2ccc(O)c(CN3CCOCC3)c12,"inconclusive: 31.6 µM [inhibitor, single point]"
16,O=C(COC(=O)C12CC3CC(CC(C3)C1)C2)Nc1nccs1,"inconclusive: 100 µM [inhibitor, single point]"
17,CCc1ccc(-n2nc(C)c3c(C)cc(=O)n(CC(=O)Nc4cc(C)ccc4C)c32)cc1,"inconclusive: 12.6 µM [inhibitor, partial curve, poor fit]"
18,CC(=O)c1ccc(N(CC(=O)NC2CCCC2)C(=O)c2csnn2)cc1,"inconclusive: 100 µM [inhibitor, partial curve, poor fit]"
19,Cc1ccc(Cn2c(SCC(=O)N/N=C/c3ccc(C)o3)nc3ccccc32)cc1,"inconclusive: 39.8 µM [inhibitor, single point]"
20,CCC(Sc1nnc2c(n1)[nH]c1ccccc12)C(=O)Nc1ccccc1OC (stereo not given),"inconclusive: 89.1 µM [inhibitor, single point]"
21,O=C1CCCN2N=C(SCC(=O)Nc3cccc(Cl)c3)SC2=N1,"inconclusive: 79.4 µM [inhibitor, partial curve]"
